Values of other authors, collected in publication PMC11792066, “Development of benzofuran-derived sulfamates as dual aromatase-steroid sulfatase inhibitors (DASIs): design, synthesis and biological evaluation” (RSC Medicinal Chemistry, 2025).
pIC50: −log10 of the molar value.

Molecular target: aromatase (AROM)
Set-up: method as in PMID 20148564
Conditions: cited from earlier work

For `CC(C)(C#N)c1cc(Cn2cncn2)cc(C(C)(C)C#N)c1` [Anastrozole], the pIC50 is listed as 8.82.
